Experimental data as given in PubChem BioAssay AID2718 (Broad Institute, 2010).
Out of some 320,000 compounds screened, about 480 (0.15%) were called active. The shares of active, inactive and inconclusive entries below differ from those in the screen. Cut-off read from the data, not from the text of the source: active = inhibition above about 26% (passing the limit was not always enough); inconclusive = no clear call, values can overlap the other calls.

Amino acid sequences for entries named in this document (tags omitted). A change or cut given only in a name is not applied to a line headed by its entry.
UniProt O15379: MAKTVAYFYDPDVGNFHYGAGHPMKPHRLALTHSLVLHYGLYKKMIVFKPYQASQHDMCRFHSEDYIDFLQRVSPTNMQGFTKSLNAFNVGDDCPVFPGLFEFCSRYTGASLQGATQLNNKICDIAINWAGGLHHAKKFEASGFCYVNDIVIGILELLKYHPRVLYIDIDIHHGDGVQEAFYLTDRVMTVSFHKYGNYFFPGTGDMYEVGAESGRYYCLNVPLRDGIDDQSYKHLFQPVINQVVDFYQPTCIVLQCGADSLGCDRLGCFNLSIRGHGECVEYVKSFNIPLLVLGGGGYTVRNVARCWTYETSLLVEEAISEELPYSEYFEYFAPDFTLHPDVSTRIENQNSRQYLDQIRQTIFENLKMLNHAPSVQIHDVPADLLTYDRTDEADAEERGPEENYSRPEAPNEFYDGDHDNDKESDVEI

Biological target: Histone deacetylase 3 (Homo sapiens) (UniProt O15379)
Experiment: HDAC3 deacetylase inhibitors, primary screen, biochemical, fluorescence, cell-free homogeneous (AID 2718)
Conditions: recombinant HDAC3, fluorogenic peptide/trypsin coupled, at 8.3 µM, stronger effect = higher value

| Structure (SMILES) | inhibition |
| --- | --- |
| O=C(Nc1nc(-c2ccc(Oc3ccccc3)cc2)cs1)C1=COCCO1 | inconclusive: 22.7% |
| Cn1c(=S)oc2ccccc21 | inactive: 1.78% |
| Cc1nc(-c2ccccc2)nc2[nH]ccc(=O)c12 | inconclusive: 11.7% |
| COC(=O)c1ccc(OCC(=O)c2ccc(O)cc2O)cc1 | inconclusive: 23.9% |
| CCOc1ccccc1Nc1nc(-c2sc(NC(=O)c3ccc([N+](=O)[O-])cc3)nc2C)cs1 | inactive: 3.49% |
| COc1ccc(C)cc1S(=O)(=O)N(C)CC(=O)Nc1ccc2c(c1)OCO2 | inconclusive: 10.6% |
| O=c1[nH][nH]c(=S)n1C1CCCCC1 | active: 32.1% |
| COc1ccc(S(=O)(=O)N2CCOC23CCN(S(=O)(=O)c2c(C)cc(C)cc2C)CC3)cc1 | inconclusive: 8.72% |
| CC1CC(C)CN(S(=O)(=O)c2ccc3c(c2)NC(=O)C(C)C(=O)N3)C1 (centres undefined) | inconclusive: 14% |
| Cc1cc(NC(=O)CSCC(=O)N(c2ccc(F)cc2)C(C(=O)NC2CCCCC2)c2ccc(O)c(O)c2)no1 (centres undefined) | inactive: 1.23% |
| COc1cc(O)ccc1/C=N/NC(=O)c1ccc([N+](=O)[O-])cc1 | inconclusive: 24.2% |
| CCOc1cc(S(=O)(=O)NC2CCCCCC2)ccc1F | inactive: 4.47% |
| Cc1ccc(Cn2c(CN3CC(C)OC(C)C3)nc3c2c(=O)[nH]c(=O)n3C)cc1 (centres undefined) | inconclusive: 21.3% |
| CCOC(=O)c1c(NC(=O)CSc2nnnn2C)sc(CC)c1C | inconclusive: 22.6% |
| O=C(O)c1cccc(Cn2c(Cl)c(/C=N/NC(=O)c3ccc(O)cc3)sc2=O)c1 | inconclusive: 17.9% |
| O=C(c1csc2c1CCCC2)n1cccn1 | active: 78.8% |
| O=C(NC1CCCC1)C1CC(=O)N(c2ccc(F)c(Cl)c2)C1 (centres undefined) | inconclusive: 17.4% |
| CC(C)(C)c1ccc(Cc2n[nH]c(=S)[nH]c2=O)cc1 | inactive: 2.78% |
| CCc1nn(CCCC(=O)NCc2ccc(C)cc2)c(=O)c2cc3occc3n12 | inconclusive: 16.7% |
| COc1cc(-c2nc(=S)[nH][nH]2)cc(OC)c1OC | inconclusive: 40.3% |
| O=C(NCc1cccnc1)c1cc(Sc2cccc(Cl)c2)nc2ccccc12 | inconclusive: 13.7% |
| CC(=O)CCS(=O)(=O)c1ccc(C)c(C)c1 | inconclusive: 10.5% |
| Cc1c2cccn2cc[n+]1C | inactive: -6.18% |

| Structure (SMILES) | inhibition |
| --- | --- |
| COCCNC(=O)c1onc(CSc2ccc(C(C)C)cc2)c1C(=O)O | inactive: -2.89% |
| CCCOC(=O)C1[C@H]2C(=O)N(CCCOC)C[C@]23C=C[C@H]1O3 (some centres undefined) | inconclusive: 15.6% |
| CC(=O)C1=C(O)CC(c2ccccc2)CC1=NCCc1c(C)[nH]c2ccccc12 (centres undefined) | inconclusive: 15.9% |
| CCNC(=O)Oc1ccc[nH]c1=O | inactive: -0.596% |
| CCOC(=O)Cc1nnc(NC(=O)CSc2nnc3c(n2)[nH]c2ccccc23)s1 | active: 64.6% |
| Cc1nc(-c2ccc(NC(=O)c3ccc(Br)o3)cc2)cs1 | inconclusive: 16.5% |
| Cc1ccc(Cl)cc1N1CCN(S(=O)(=O)c2ccc3c(c2)CC(=O)N3C)CC1 | inactive: -1.63% |
| CCOC(=O)C1CSc2[nH]c(=O)sc2C1c1ccccc1 (centres undefined) | inactive: 3.4% |
| Cc1cc(C(=O)Nc2c(F)c(F)c(F)c(F)c2F)n(-c2ccccc2)n1 | inconclusive: 19% |
| CCOC(=O)C(=CNc1cccc(C)c1C)C(=O)OCC | inactive: 3.27% |
| Cc1nnc(NC(=O)c2ccc(S(=O)(=O)N3CCCCC3)cc2)s1 | inconclusive: 13.1% |
| COc1cccc(/C(O)=C2/C(=O)C(=O)N(c3cc(C)on3)C2c2cccs2)c1 (centres undefined) | inactive: 1.55% |
| C[C@H]1[C@H](c2ccccc2)C[C@@H](C(=O)O)C1(C)C | inactive: 14.7% |
| CCOC(=O)c1cc2c(N)c(C(=O)c3cc(C#N)c(SC)nc3C)sc2nc1C | inconclusive: 22.3% |
| N#Cc1c(Nc2ccccc2)c(C=O)c[nH]c1=O | inconclusive: 16.4% |
| Cc1ccc(NC(CNS(=O)(=O)c2ccc(Cl)cc2)c2ccccc2)cc1 (centres undefined) | inconclusive: 13.3% |
| COc1ccc(NC(=S)Nc2ccc(S(N)(=O)=O)cc2)c(C)c1 | inconclusive: 27.3% |
| CC(=O)NN1C(=O)c2ccccc2NC1c1ccccn1 (centres undefined) | inactive: -11.5% |
| CCOc1ccc(=O)n(-c2ccccc2)n1 | inconclusive: 15.6% |
| O=C(Nc1cc(C(F)(F)F)ccc1N1CCCC1)C1=COCCO1 | inconclusive: 21.8% |
| COc1ccc(N2CCN(CC(=O)NCc3ccc(Cl)cc3)CC2)cc1 | inactive: 2.55% |
| CCOCCCN(C(=O)c1snc(C(N)=O)c1N)C(C(=O)NC1CCCC1)c1ccc(O)c(OC)c1 (centres undefined) | inactive: -10.5% |
| COc1ccc(CNC(=O)CCNS(=O)(=O)c2ccc(NC(C)=O)cc2)cc1OC | inactive: -7.36% |

| Structure (SMILES) | inhibition |
| --- | --- |
| COc1cc(Br)c(CCNC(=O)Cc2ccccc2)cc1OC | inconclusive: 21.5% |
| O=C(NCc1nnc(SCC(=O)N2CCCCCC2)o1)c1ccco1 | inconclusive: 24.2% |
| CC(C(=O)Nc1ccccc1C(=O)O)n1c(C(F)(F)F)nc2ccccc21 (centres undefined) | inconclusive: 19.9% |
| O=C(OCC(=O)N1CCCC1=O)c1ccc(Cl)cc1[N+](=O)[O-] | inconclusive: 12.6% |
| COc1cc(C)nc(N2CCC(C(N)=O)CC2)n1 | inconclusive: 2.42% |
| COc1ccc(C(=O)NNC(=S)NC(=O)c2cccnc2)cc1 | inconclusive: 16.4% |
| O=[N+]([O-])c1cc2c(cc1/C=N/Nc1nc(N3CCCC3)nc(N3CCCC3)n1)OCO2 | inconclusive: 21% |
| Cc1ccc(C2=NC3(CCCC3)N=C2SCC(=O)Nc2ccc3c(c2)OCCO3)cc1 | inconclusive: 16.5% |
| COc1cc(C)nc(N2CCCC(C(=O)Nc3cccc(Cl)c3Cl)C2)n1 (centres undefined) | inconclusive: 26.2% |
| Cc1cccc(-n2c(C)nc3cc(C(=O)N4CCOCC4)ccc32)c1 | inconclusive: 18.5% |
| CC(C)c1ccc(S(=O)(=O)N2CCN(CC(=O)Nc3ccc(Cl)cc3F)CC2)cc1 | inconclusive: 13.9% |
| Cc1ccc(C(=O)Nc2ncccc2O)cc1S(=O)(=O)N1CCCCC1 | inconclusive: 51.5% |
| CN(C)c1ccc(CN(C(=O)/C=C/c2ccccc2Cl)C2CCS(=O)(=O)C2)cc1 (centres undefined) | inconclusive: 20.9% |
| CN(C1CCCCC1)S(=O)(=O)c1ccc2c(c1)c(=O)c(C(=O)N1CCc3ccccc3C1)cn2C | inconclusive: 16.9% |
| CC(=O)NCCNC(=O)c1ccc(-n2c(C)ccc2C)cc1 | inconclusive: 12.9% |
| Cc1ccc(C(=O)Nc2nnc(-c3ccc(C(C)(C)C)cc3)s2)cc1 | inconclusive: 20.3% |
| COCCCn1c(=O)c2sccc2n2c(CCCC(=O)NCc3ccccc3OC)nnc12 | inconclusive: 12.7% |
| Cc1nn(C)c(Oc2ccccc2)c1CCNC(=O)CCl | inactive: 2.01% |
| CN1CCN(CC(=O)Nc2nc(-c3c[nH]c4ccccc34)cs2)CC1 | inconclusive: 18.1% |
| CCn1nnnc1NCc1c(OC)ccc2ccccc12 | inconclusive: 24.9% |
| CCCOc1ccc(C2C(C#N)=C(N)Oc3nc[nH]c(=O)c32)cc1OC (centres undefined) | inconclusive: 6.17% |
| O=C(CCS(=O)(=O)c1ccc2c(c1)NC(=O)CO2)NCCc1ccccc1 | inconclusive: 18.1% |
| CC(=O)NC(CC(=O)Nc1ccc(S(=O)(=O)N2CCCCC2)cc1)c1ccccc1 (centres undefined) | inconclusive: 14.9% |

Looked up by structure from above, two records:

| Structure (SMILES) | inhibition |
| --- | --- |
| O=C(c1csc2c1CCCC2)n1cccn1 | active: 78.8% |
| CCCOc1ccc(C2C(C#N)=C(N)Oc3nc[nH]c(=O)c32)cc1OC (centres undefined) | inconclusive: 6.17% |

The results go on.

| Structure (SMILES) | inhibition |
| --- | --- |
| O=C1C(Cc2ccccc2)Nc2ncnc(N3CCN(c4ccccc4)CC3)c2N1Cc1ccc(Br)cc1 (centres undefined) | inconclusive: 25.1% |
| CCCCc1nc2ccccc2c(NC(=O)CN2CCCC2)c1CCC | inconclusive: 14.6% |
| CCCCn1nc2cc(C(=O)NCc3ccc(OC(F)(F)F)cc3)ccc2c1OC | inconclusive: 16.4% |
| O=C(CCl)Nc1ccc(N2CCCCCC2)cc1 | inactive: 1.94% |
| COc1cc(CNc2ccc(O)cc2)cc(Br)c1OCc1ccccc1 | inconclusive: 17.1% |
| COc1ccc(CCNS(=O)(=O)c2ccccc2)cc1OC | inconclusive: 10% |
| Cc1ccc(C(=O)N/C(=C\c2ccc(-c3ccc(Br)cc3)o2)C(=O)NCCCN(C)C)cc1 | inactive: 2.18% |
| O=C(N/N=C/c1cc(Br)c(O)c(Br)c1O)c1ccc2c(c1)OCCO2 | inconclusive: 8.67% |
| COc1ccc(-c2c(C)nn(-c3ccccc3)c2N)cc1 | inconclusive: 17.7% |
| NS(=O)(=O)c1ccc(NC(=O)CSc2nc3c(c(=O)[nH]2)CCCC3)cc1 | inactive: 3.8% |
| O=C(COC(=O)C1CC2C=CC1C2)Nc1ccc2c(c1)OC(F)(F)O2 (centres undefined) | inconclusive: 28.4% |
| Cc1ccn2c(-c3n[nH]c(=S)n3C)c(C)nc2c1 | inactive: -1.09% |
| O=C1CSC(c2cn(-c3ccccc3)nc2-c2cccs2)N1CC1CCCO1 (centres undefined) | inconclusive: 25.3% |
| C=CCNCCCOc1ccc(Cl)cc1C(C)(C)C | inconclusive: 18.4% |
| COC(=O)c1ccc(COc2ccc(C)cc2[N+](=O)[O-])o1 | inconclusive: 21.7% |
| COC(=O)C(/C=N/OCc1ccc([N+](=O)[O-])cc1)NC(=O)c1cccc(Cl)c1 (centres undefined) | active: 44.3% |
| CCCCCC(=O)Nc1cccc(C2=NOC3(C2)C[C@H](C(N)=O)N(C(=O)COc2ccc(Cl)cc2)C3)c1 (some centres undefined) | inactive: 6.07% |
| CC1=C(C(=O)OCC(C)C)C(c2cc3c(cc2Br)OCO3)NC(=O)N1C (centres undefined) | inconclusive: 17.4% |
| COc1ccc(/C=N/Nc2c(Cl)cc(Cl)cc2Cl)cc1CN1CCOCC1 | inconclusive: 32.3% |
| Cc1ccc(Cn2nnc3c(=O)[nH]c(C4CCN(S(=O)(=O)c5cc(C)ccc5C)CC4)nc32)cc1 | inconclusive: 23.7% |

A few values from above.
Under inhibition, `O=C(COC(=O)C1CC2C=CC1C2)Nc1ccc2c(c1)OC(F)(F)O2` (centres undefined) is entered as inconclusive: 28.4%
Under inhibition, `CCCCc1nc2ccccc2c(NC(=O)CN2CCCC2)c1CCC` is entered as inconclusive: 14.6%
